Protein sequences, listed by entry. Tags and fused reporters are not part of them.
UniProt Q7Z739: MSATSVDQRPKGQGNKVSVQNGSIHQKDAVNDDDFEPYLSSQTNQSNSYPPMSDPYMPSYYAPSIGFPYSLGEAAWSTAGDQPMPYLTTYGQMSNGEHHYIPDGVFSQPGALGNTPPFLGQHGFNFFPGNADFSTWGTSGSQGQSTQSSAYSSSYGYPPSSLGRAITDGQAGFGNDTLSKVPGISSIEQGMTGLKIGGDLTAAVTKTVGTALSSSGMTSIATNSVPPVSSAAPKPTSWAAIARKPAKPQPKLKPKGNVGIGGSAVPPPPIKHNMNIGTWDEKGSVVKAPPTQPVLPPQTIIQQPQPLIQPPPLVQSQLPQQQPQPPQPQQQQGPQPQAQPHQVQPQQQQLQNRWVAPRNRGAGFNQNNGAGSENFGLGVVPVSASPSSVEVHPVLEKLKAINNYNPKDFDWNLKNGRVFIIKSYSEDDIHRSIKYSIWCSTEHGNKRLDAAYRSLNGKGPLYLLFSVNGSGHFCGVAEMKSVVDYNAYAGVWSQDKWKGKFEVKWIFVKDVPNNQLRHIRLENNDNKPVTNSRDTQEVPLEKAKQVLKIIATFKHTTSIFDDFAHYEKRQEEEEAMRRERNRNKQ

According to publication doi:10.1101/2021.02.20.432055:

T1: YFP-SA2^e32+ (YFP-tagged SA2 containing exon 32) (human) (UniProt Q8N3U4)
T1 sequence: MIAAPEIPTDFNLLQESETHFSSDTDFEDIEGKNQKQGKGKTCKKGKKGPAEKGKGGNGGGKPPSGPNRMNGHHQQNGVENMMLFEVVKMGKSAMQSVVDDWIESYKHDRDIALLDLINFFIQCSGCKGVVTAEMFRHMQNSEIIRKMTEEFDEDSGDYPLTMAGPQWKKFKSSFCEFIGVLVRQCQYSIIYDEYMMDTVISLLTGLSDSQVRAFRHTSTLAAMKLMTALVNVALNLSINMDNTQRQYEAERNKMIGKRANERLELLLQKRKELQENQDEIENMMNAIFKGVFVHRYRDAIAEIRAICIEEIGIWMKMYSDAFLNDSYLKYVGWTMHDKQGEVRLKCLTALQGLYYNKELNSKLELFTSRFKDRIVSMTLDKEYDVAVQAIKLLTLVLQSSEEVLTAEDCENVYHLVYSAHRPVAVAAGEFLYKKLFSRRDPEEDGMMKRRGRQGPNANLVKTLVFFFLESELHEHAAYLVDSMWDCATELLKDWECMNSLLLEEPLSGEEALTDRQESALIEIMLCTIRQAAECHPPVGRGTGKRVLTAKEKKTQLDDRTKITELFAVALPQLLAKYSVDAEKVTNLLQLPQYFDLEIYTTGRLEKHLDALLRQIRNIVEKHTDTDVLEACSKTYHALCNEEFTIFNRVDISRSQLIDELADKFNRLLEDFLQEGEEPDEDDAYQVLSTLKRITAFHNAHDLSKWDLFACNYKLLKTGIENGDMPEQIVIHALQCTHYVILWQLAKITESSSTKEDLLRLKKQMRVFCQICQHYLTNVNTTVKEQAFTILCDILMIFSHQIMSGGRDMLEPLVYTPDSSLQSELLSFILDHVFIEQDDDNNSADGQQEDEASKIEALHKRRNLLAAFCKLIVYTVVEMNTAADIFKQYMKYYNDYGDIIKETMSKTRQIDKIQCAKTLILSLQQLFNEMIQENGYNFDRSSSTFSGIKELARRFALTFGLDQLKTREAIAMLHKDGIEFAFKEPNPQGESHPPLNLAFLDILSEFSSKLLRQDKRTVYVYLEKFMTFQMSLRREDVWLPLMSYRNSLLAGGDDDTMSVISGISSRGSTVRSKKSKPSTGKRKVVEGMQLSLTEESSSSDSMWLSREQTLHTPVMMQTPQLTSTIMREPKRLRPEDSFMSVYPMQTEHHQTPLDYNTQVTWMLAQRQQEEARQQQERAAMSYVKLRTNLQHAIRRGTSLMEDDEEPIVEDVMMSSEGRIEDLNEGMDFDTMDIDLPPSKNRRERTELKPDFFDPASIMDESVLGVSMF

T2: SA1 (Stromalin Antigen 1, STAG1) (human (endogenous in HCT116)) (UniProt Q8WVM7)
T2 sequence: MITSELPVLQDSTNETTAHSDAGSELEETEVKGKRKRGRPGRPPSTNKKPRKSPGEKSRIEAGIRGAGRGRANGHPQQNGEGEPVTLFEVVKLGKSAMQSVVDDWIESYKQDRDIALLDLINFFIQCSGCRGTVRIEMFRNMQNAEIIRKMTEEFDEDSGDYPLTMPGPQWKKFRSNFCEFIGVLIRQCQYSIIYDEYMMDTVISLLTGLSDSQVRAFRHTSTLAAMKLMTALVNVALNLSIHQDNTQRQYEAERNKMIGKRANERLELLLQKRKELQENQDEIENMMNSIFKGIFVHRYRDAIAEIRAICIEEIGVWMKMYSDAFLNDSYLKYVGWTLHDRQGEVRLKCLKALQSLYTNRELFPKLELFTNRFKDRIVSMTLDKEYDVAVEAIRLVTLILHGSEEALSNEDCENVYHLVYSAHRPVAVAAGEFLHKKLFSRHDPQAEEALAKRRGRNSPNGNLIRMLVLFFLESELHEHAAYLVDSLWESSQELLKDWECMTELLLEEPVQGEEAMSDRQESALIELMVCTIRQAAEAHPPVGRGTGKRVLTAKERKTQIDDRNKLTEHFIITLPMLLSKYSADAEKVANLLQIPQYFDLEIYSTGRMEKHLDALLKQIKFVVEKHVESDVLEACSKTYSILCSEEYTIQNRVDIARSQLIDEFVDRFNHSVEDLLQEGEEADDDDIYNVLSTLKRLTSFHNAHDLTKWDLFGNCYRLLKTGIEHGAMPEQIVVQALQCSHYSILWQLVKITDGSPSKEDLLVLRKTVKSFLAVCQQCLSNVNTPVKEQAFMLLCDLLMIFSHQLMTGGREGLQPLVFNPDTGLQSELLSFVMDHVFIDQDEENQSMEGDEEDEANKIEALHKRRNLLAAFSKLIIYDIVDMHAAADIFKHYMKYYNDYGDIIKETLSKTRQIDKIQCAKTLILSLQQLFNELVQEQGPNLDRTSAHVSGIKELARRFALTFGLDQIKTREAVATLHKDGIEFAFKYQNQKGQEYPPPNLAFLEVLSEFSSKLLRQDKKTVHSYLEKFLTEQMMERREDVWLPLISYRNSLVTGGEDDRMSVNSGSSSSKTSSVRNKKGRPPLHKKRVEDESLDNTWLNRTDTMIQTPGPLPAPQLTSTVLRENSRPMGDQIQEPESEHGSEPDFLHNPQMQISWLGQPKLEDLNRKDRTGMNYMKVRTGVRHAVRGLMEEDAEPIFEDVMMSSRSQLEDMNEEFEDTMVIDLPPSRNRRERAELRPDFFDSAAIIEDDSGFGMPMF


Key:
[1] = target: T1, YFP-SA2^e32+ (YFP-tagged SA2 containing exon 32) (human); experiment: affinity purification with mass spectrometry
[2] = target: T2, SA1 (Stromalin Antigen 1, STAG1) (human (endogenous in HCT116)); experiment: affinity purification with mass spectrometry

binding [1] | binding [2] | Molecule
binds | binds | YTHDF3 (from UniProt Q7Z739 1-585)
binds |  | DIS3 (protein, UniProt Q9Y2L1 1-958) MLKSKTFLKKTRAGGVMKIVREHYLRDDIGCGAPGCAACGGAHEGPALEPQPQDPASSVCPQPHYLLPDTNVLLHQIDVLEDPAIRNVIVLQTVLQEVRNRSAPVYKRIRDVTNNQEKHFYTFTNEHHRETYVEQEQGENANDRNDRAIRVAAKWYNEHLKKMSADNQLQVIFITNDRRNKEKAIEEGIPAFTCEEYVKSLTANPELIDRLACLSEEGNEIESGKIIFSEHLPLSKLQQGIKSGTYLQGTFRASRENYLEATVWIHGDNEENKEIILQGLKHLNRAVHEDIVAVELLPKSQWVAPSSVVLHDEGQNEEDVEKEEETERMLKTAVSEKMLKPTGRVVGIIKRNWRPYCGMLSKSDIKESRRHLFTPADKRIPRIRIETRQASTLEGRRIIVAIDGWPRNSRYPNGHFVRNLGDVGEKETETEVLLLEHDVPHQPFSQAVLSFLPKMPWSITEKDMKNREDLRHLCICSVDPPGCTDIDDALHCRELENGNLEVGVHIADVSHFIRPGNALDQESARRGTTVYLCEKRIDMVPELLSSNLCSLKCDVDRLAFSCIWEMNHNAEILKTKFTKSVINSKASLTYAEAQLRIDSANMNDDITTSLRGLNKLAKILKKRRIEKGALTLSSPEVRFHMDSETHDPIDLQTKELRETNSMVEEFMLLANISVAKKIHEEFSEHALLRKHPAPPPSNYEILVKAARSRNLEIKTDTAKSLAESLDQAESPTFPYLNTLLRILATRCMMQAVYFCSGMDNDFHHYGLASPIYTHFTSPIRRYADVIVHRLLAVAIGADCTYPELTDKHKLADICKNLNFRHKMAQYAQRASVAFHTQLFFKSKGIVSEEAYILFVRKNAIVVLIPKYGLEGTVFFEEKDKPNPQLIYDDEIPSLKIEDTVFHVFDKVKVKIMLDSSNLQHQKIRMSLVEPQIPGISIPTDTSNMDLNGPKKKKMKLGK

No constants are given. Whether binding was seen depends on the method and setting. Binding seen in cells or lysates may run through a third protein. Here binding means that the protein was enriched with, or labelled near, the bait; the list need not be complete. Where a sequence is shown, tags or fusion partners need not be part of it.
